Data as given in PubChem BioAssay AID686943 (Drosophila RNAi Screening Center, 2013).
Purpose: 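Fly genes whose loss alters ERK activation after insulin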 (primary screen). Cell system: Drosophila S2R+ haemocyte-like cells expressing YFP-tagged ERK (Rolled). Reagent: long dsRNA against Drosophila genes. Challenge: insulin stimulation versus unstimulated cells; dose and duration not given. Read-out: 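Antibody staining for doubly phosphorylated ERK divided by ERK-YFP signal, as plate z-scores, in insulin-treated and untreated cells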. Reading the numbers: replicate 1, z-score of dpERK with insulin and replicate 2, z-score of dpERK with insulin: higher = more active ERK per ERK-YFP after insulin; replicate 1, z-score of dpERK under basal conditions: higher = more basal active ERK per ERK-YFP; replicate 1, z-score of ERK-YFP with insulin: higher = more YFP-tagged ERK signal.
The screen tested about 23,000 reagents; below is a random part of those with a known target gene and a result. 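Extra replicates exist only for a retested subset of genes; insulin dose and duration not given; both raised and lowered dpERK matter.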 Names joined by + are all predicted targets of the reagent. No sequences are given here. Not stated in the record: the amount of reagent, the time to read-out.

target	dsRNA	replicate 1, z-score of dpERK with insulin	replicate 2, z-score of dpERK with insulin	replicate 1, z-score of dpERK under basal conditions	replicate 1, z-score of ERK-YFP with insulin
Loxl2	DRSC04469	0.29	-0.55	0.27	-0.33
Jheh2	DRSC06530	0.27	-0.15	-0.33	0.75
CG12115	DRSC17811	1.35	1.31	-0.55	0.82
Pef	DRSC06695	-0.02	-0.03	0.6	-0.42
sa	DRSC11649	-0.94	0.06	-0.54	0.6
Adsl	DRSC15500	-0.05	0.38	0.85	-0.05
NELF-B	DRSC17734	1.26	0.99	-0.55	-0.11
Josd	DRSC18323	0.05	-0.36	0.7	0.09
Jhbp5	DRSC14240	0.33	0.58	0.02	0.16
HPS4	DRSC06906	0.37	-0.5	-0.21	-0.53
nw	DRSC06451	-0.99	-0.68	0.31	0.83
nw	DRSC06749	0.09	0.64	0.39	0.65
nw	DRSC06896	-1.06	-0.34	-0.78	0.63
Nplp4	DRSC00391	0.58	0.56	-1.43	0.46
Prp40	DRSC00612	0.04	-1.36	-0.52	1.35
Vhl	DRSC07716	-1.6	-0.49	0.95	0.85
OstDelta	DRSC06980	0.29	0.4	0.53	-0.17
Cyp6g2	DRSC07387	-0.03	0.57	-0.4	0.29
CG1136	DRSC08184	0.41	-0.26	0.95	0.2
CG31077	DRSC13805	-1.58	0.2	2.28	-1.14
obst-B	DRSC01987	0.1	0.43	0.92	0.64
CG10345	DRSC14138	0.63	0.38	-0.64	0.62
CG8192	DRSC07101	-1.4	-3.93	-3.02	0.38
RN-tre	DRSC07521	-0.06	-0.8	2.18	-0.63
Cpr35B	DRSC01949	0.63	1.09	0.46	-1.03
Cpr35B	DRSC22797	-0.09	0.02	0.41	0.61
CG12716	DRSC19493	0.42	0.63	-0.28	0.14
Clamp	DRSC03718	0.31	0.75	-0.1	0.3
Clamp	DRSC21682	1.47	1.46	-0.8	-0.81

In a second layout: 10 of the entries above
| target | dsRNA | replicate 1, z-score of dpERK with insulin | replicate 2, z-score of dpERK with insulin | replicate 1, z-score of dpERK under basal conditions | replicate 1, z-score of ERK-YFP with insulin |
| --- | --- | --- | --- | --- | --- |
| CG12115 | DRSC17811 | 1.35 | 1.31 | -0.55 | 0.82 |
| Pef | DRSC06695 | -0.02 | -0.03 | 0.6 | -0.42 |
| sa | DRSC11649 | -0.94 | 0.06 | -0.54 | 0.6 |
| Adsl | DRSC15500 | -0.05 | 0.38 | 0.85 | -0.05 |
| NELF-B | DRSC17734 | 1.26 | 0.99 | -0.55 | -0.11 |
| Josd | DRSC18323 | 0.05 | -0.36 | 0.7 | 0.09 |
| Jhbp5 | DRSC14240 | 0.33 | 0.58 | 0.02 | 0.16 |
| HPS4 | DRSC06906 | 0.37 | -0.5 | -0.21 | -0.53 |
| nw | DRSC06451 | -0.99 | -0.68 | 0.31 | 0.83 |
| nw | DRSC06749 | 0.09 | 0.64 | 0.39 | 0.65 |

Next records follow:
target	dsRNA	replicate 1, z-score of dpERK with insulin	replicate 2, z-score of dpERK with insulin	replicate 1, z-score of dpERK under basal conditions	replicate 1, z-score of ERK-YFP with insulin
CG43347	DRSC17982	0.05	0.28	1.75	-1.22
CG43347	DRSC18446	-4.46	0.34	-0.12	-4.47
CG43347	DRSC22656	0.18	-0.13	4.92	-3.75
CG43347	DRSC22682	-2.8	-0.21	-1.21	1.05
Tsen34 + Trl	DRSC10014	-0.38	0.17	-0.08	0.12
CG8173	DRSC20088	-0.98	0.06	-0.24	0.53
CG14805	DRSC18554	0.29	-0.36	-1.12	-0.27
Tehao	DRSC03449	1.13	0.49	0.08	-0.57
CG4950	DRSC10463	0.04	-0.84	-0.87	-0.29
pnut	DRSC07666	-0.06	0.24	0.47	0.41
CG12521	DRSC09893	0.19	0.48	0.02	0.03
Cht2	DRSC08650	0.08	-0.04	0.12	-0.46
ETH + asRNA:CR43257	DRSC04612	0.58	0.59	0.04	-0.42
CG18301	DRSC02662	0.12	0.07	-0.12	-0.02
CG1737	DRSC19771	-1.13	-1	-0.93	0.43
CG34176	DRSC00435	0.9	0.6	0.52	0.5
CG31272	DRSC16058	-0.62	0.34	-1.08	0.08
Ugt36E1	DRSC02599	0.73	-0.06	0.65	-0.35
CG34195	DRSC06909	0.02	0.19	-0.84	0.12
AIF	DRSC00696	-0.91	-0.19	-0.17	0.11
snRNP-U1-70K	DRSC03612	0.64	0.37	0.09	0.55
snRNP-U1-70K	DRSC22071	1.12	0.32	-0.06	-0.31
Acp26Ab	DRSC01856	0.11	0.06	-0.36	0.02
CG17618 (retired record) + CG45049	DRSC16163	1.31	0.03	-0.23	0.32
CG17618 (retired record) + CG45049	DRSC22054	-0.87	-1.38	-1.52	-2.18
MFS16	DRSC04051	-1.13	-0.12	0.17	0.15
Fdx2	DRSC08306	0.69	0.94	-0.39	-0.05
eIF3i	DRSC03464	-1.9	-2.18	-0.01	-0.94
ssp7	DRSC18878	0.85	0.36	-0.04	0.58
CG15199	DRSC19646	0.04	-0.09	-0.48	0.6
prage	DRSC17957	0.38	3.43	0.8	-0.21
prage	DRSC17958	-0.99	-1.86	-1.66	5.03
prage	DRSC18490	-0.8	0.16	1.34	-1.89
prage	DRSC18497	0.42	0.37	-0.14	-0.51
CG7963	DRSC16355	0.07	-0.35	0.4	-0.02
CG18324	DRSC06721	-0.03	-0.56	0.52	0.73
CG10343	DRSC02041	0.74	1.28	-0.68	1.7
GluProRS	DRSC14095	0.29	0.4	-0.3	0.17
Hsc70-3	DRSC20253	1.99	-0.91	1.83	-4.63
CG43131	DRSC12046	0.18	-0.55	0.43	0.28
fipi	DRSC00465	0.31	0.97	-1.67	-2.24
Efhc1.2	DRSC06027	0.35	0.09	0.17	-0.53
CG17801	DRSC15273	-0.21	-0.58	-0.33	0.03
Gr28b	DRSC02291	0	0.73	-0.7	-0.66
Gr28b	DRSC02292	-0.13	0.78	0.56	-0.99
